The values below come from PMC4267404, “Trihelix transcription factor GT-4 mediates salt tolerance via interaction with TEM2 in Arabidopsis”.

No constants are given. Whether binding was seen depends on the method and setting. In cells and extracts the contact can be indirect. Where a sequence is shown, tags or fusion partners need not be part of it.

The target of this experiment is T1, GT-4-YFPc (GT-4 fused to the C-terminal part of yellow fluorescent protein) (Arabidopsis) (UniProt Q9LU92).
T1 sequence: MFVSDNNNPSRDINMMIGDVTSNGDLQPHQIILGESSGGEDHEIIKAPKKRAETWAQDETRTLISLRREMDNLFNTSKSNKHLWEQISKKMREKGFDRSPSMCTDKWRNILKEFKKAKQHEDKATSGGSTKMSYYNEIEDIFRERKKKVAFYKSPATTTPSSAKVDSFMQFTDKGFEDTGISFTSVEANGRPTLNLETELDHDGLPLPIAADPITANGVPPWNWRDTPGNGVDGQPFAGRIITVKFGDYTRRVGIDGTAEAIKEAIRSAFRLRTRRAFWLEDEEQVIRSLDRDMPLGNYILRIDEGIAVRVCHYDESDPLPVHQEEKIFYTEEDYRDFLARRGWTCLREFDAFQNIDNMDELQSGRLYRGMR
Description: split reporter; BiFC with YFP halves, constructs co-transformed into Arabidopsis protoplasts, confocal microscopy 16 h later.

“YN (N-terminal of yellow fluorescent protein alone) (domain or fragment)”: the binding result is “no binding”.
